Laboratory results reported in PMC3525516.

Chains of the proteins cited; added tags and fusions are not shown. Residues count along the entry.
UniProt P14211, residues 18-416: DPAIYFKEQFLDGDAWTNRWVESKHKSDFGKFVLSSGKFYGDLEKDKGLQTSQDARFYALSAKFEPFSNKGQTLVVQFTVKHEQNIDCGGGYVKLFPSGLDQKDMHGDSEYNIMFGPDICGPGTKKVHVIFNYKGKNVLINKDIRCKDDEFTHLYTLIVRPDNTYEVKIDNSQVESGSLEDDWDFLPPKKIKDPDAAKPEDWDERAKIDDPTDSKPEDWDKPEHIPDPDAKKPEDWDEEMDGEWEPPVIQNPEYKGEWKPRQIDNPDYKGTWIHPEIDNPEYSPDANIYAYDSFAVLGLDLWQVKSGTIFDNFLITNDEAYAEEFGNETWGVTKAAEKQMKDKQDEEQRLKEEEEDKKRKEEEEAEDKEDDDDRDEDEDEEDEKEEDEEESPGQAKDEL
UniProt P11142: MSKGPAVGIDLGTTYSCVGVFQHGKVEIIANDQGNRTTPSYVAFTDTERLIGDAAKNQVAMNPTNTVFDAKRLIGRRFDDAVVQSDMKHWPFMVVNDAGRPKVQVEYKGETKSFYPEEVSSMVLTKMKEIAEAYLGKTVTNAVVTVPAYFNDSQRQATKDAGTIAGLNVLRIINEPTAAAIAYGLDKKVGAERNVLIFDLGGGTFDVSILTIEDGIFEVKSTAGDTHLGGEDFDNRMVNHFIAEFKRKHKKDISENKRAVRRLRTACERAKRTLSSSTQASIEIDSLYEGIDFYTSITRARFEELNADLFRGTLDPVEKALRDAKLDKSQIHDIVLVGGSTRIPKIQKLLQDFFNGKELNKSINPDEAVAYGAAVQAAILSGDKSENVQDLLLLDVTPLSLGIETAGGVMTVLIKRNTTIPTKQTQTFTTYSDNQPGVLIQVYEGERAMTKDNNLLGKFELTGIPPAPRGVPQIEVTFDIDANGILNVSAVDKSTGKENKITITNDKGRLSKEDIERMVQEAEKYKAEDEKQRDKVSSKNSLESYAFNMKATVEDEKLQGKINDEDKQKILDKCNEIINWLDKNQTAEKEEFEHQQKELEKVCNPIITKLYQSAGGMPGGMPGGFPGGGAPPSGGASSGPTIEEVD
UniProt Q80WE4: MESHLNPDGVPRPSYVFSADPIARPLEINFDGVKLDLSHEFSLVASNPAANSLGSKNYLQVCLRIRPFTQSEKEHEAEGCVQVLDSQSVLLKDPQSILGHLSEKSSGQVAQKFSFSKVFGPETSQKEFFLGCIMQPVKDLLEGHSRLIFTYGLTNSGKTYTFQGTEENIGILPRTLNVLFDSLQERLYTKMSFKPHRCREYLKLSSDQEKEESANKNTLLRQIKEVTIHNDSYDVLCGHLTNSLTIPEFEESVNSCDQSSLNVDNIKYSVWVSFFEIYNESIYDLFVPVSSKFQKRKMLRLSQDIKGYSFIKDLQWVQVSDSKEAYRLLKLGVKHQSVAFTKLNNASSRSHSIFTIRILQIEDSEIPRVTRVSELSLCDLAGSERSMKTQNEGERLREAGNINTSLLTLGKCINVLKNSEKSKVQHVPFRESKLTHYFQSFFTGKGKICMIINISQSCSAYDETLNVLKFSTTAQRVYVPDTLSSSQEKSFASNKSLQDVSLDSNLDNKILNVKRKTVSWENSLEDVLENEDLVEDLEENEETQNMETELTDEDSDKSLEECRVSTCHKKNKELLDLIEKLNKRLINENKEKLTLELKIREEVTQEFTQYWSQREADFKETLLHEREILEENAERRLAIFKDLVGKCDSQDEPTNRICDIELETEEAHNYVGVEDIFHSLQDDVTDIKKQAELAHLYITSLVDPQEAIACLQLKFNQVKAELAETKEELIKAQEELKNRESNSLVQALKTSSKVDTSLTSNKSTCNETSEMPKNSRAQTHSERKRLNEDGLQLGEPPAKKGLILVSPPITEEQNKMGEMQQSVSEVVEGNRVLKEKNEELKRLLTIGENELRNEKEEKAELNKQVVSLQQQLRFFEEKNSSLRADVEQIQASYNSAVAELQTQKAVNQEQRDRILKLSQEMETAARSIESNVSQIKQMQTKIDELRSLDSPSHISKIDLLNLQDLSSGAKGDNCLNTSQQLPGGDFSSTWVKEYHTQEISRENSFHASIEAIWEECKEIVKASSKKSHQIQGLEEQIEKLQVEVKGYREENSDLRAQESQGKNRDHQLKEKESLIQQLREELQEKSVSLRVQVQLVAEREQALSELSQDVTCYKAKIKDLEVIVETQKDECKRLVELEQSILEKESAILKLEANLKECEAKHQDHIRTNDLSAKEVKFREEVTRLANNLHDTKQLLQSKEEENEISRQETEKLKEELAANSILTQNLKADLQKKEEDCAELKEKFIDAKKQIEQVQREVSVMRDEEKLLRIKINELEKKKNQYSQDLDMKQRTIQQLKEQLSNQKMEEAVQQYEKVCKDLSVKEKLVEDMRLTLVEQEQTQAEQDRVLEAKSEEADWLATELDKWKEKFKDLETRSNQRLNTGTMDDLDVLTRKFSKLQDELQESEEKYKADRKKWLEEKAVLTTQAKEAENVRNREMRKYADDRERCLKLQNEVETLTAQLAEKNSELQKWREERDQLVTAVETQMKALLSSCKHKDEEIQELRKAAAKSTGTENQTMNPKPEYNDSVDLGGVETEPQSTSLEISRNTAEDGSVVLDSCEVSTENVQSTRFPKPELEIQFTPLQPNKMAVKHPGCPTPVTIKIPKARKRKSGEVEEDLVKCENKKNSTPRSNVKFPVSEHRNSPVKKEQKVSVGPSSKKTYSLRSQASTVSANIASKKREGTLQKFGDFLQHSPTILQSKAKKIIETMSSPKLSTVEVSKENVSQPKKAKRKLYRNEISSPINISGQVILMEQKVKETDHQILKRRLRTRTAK
UniProt Q96PV6: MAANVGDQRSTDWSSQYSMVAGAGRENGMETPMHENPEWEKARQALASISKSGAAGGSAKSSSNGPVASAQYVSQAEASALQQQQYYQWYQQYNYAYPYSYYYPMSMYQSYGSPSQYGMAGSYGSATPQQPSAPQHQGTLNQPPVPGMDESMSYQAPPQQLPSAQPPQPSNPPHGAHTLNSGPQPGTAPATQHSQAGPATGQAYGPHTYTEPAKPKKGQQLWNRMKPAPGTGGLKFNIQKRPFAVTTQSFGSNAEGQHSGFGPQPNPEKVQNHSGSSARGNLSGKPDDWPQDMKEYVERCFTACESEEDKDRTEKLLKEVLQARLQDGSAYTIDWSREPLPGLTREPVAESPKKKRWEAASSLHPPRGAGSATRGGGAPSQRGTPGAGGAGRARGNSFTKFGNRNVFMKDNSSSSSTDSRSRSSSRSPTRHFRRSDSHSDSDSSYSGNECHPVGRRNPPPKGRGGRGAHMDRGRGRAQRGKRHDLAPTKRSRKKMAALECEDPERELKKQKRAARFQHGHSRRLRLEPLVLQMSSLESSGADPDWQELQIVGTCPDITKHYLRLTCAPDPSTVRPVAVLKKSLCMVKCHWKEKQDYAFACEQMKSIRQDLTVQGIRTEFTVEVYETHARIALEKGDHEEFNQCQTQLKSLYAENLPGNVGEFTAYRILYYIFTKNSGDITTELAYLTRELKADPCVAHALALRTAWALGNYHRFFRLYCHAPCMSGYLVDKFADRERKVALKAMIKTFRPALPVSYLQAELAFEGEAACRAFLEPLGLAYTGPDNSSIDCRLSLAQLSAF
UniProt Q01768: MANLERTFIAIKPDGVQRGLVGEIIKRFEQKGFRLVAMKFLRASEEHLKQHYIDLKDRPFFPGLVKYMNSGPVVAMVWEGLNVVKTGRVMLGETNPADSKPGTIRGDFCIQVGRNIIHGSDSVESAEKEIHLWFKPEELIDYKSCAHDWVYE
UniProt B1AWL2: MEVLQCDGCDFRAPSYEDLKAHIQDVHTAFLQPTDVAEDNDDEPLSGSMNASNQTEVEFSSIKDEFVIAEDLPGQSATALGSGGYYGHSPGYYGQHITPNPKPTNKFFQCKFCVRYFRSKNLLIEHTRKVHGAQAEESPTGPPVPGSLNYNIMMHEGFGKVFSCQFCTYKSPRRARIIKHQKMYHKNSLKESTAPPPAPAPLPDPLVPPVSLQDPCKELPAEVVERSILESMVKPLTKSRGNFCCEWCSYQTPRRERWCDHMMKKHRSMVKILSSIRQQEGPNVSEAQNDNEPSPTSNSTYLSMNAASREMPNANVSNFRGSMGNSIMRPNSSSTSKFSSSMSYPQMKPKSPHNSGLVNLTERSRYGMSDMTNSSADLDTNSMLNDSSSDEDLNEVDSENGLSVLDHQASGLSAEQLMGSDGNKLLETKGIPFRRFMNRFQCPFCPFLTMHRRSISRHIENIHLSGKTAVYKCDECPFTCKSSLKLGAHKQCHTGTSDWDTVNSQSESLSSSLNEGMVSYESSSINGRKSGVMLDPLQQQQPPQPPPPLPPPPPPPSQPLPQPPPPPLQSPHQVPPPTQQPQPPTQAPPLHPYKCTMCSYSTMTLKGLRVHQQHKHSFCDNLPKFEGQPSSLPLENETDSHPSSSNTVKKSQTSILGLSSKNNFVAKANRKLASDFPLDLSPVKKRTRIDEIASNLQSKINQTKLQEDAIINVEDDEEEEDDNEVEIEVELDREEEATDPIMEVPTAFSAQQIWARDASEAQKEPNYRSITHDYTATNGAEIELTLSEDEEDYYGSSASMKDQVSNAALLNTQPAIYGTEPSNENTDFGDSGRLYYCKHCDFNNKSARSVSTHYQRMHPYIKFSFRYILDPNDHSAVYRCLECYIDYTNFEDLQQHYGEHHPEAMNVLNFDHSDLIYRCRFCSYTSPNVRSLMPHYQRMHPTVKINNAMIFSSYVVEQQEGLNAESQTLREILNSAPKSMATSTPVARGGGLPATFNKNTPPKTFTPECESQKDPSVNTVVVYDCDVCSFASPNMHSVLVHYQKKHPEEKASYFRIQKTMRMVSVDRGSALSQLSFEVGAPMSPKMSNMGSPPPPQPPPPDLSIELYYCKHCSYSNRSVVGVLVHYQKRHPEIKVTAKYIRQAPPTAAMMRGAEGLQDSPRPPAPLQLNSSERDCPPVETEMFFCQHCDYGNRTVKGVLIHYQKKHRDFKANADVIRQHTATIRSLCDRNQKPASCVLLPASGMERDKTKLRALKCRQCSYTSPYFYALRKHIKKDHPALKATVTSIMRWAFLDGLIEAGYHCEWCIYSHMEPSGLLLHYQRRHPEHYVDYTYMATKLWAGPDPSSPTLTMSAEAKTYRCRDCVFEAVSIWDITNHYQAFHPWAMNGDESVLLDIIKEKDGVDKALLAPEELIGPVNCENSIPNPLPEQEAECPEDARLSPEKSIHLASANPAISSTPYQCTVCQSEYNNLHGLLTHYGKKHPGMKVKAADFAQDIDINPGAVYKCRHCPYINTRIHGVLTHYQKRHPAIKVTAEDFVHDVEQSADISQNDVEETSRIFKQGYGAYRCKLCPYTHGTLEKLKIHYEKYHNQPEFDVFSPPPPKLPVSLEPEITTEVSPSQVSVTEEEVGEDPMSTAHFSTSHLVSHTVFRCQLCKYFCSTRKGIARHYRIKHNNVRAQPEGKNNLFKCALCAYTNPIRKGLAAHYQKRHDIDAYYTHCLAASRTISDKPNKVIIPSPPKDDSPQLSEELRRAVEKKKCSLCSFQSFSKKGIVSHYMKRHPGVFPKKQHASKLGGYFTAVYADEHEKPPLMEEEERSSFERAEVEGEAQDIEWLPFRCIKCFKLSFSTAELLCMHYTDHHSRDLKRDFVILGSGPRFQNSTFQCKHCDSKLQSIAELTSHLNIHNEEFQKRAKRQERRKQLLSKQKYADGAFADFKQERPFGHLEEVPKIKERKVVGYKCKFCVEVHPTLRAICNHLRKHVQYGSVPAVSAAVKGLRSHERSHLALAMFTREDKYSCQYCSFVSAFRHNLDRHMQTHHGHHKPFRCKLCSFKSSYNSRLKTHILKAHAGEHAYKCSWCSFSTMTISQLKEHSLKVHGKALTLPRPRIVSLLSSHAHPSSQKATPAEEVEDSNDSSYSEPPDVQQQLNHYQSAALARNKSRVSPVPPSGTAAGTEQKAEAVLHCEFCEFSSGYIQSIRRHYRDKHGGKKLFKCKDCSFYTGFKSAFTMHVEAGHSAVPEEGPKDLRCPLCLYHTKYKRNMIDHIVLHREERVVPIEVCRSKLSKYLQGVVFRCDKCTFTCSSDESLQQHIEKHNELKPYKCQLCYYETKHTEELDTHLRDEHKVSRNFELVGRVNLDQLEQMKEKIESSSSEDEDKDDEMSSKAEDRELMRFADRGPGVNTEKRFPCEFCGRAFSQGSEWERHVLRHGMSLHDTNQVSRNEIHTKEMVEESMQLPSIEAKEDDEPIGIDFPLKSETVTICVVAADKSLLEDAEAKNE

Target: T1, Huntingtin Yeast Two-Hybrid Protein K, recombinant 6HN-HYPK (UniProt Q9NX55)
T1 sequence: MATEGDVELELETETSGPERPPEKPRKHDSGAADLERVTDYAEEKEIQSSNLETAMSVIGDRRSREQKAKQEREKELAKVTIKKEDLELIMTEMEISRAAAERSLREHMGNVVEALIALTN
Test: affinity purification with mass spectrometry; 200 µg purified 6HN-HYPK bound to a Ni-NTA column as bait; ~800 µg soluble cell lysate (HeLa, Neuro2A, STHdhQ7/HdhQ7 or STHdhQ111/HdhQ111) as prey overnight; washed with 50 mM Tris pH 8.0, 150 mM NaCl, 1.0% NP-40; eluted with 300 mM imidazole; 1D or 2D SDS-PAGE, unique bands or spots by MALDI-TOF/TOF; only the target purified

How did the binding turn out when “Calreticulin (from UniProt P14211 18-416)” was run?
Its binding is “binds”.

Which binding does the source give for “Centrosomal protein 290 kDa (from UniProt Q6A078 1-2472)” here?
Its binding is “binds”.

With “Eukaryotic translation elongation factor 1 alpha 1 (HeLa) (from UniProt P68104 1-462)” as the molecule, how does the binding read?
Its binding is “binds”.

How did the binding turn out when “Glutamate dehydrogenase 1 (from UniProt P26443 54-558)” was run?
Its binding is “binds”.

For “Glutamate dehydrogenase 2 (mouse (endogenous in Neuro2A))”, which binding is on record?
Its binding is “binds”.

For “Heat shock 70kDa protein 8 (HeLa) (from UniProt P11142 1-646)”, which binding is on record?
The binding was “binds”.

“Kinesin family member 20B (from UniProt Q80WE4 1-1774)” was tested. Which binding did it give?
Its binding is “binds”.

Which binding does the source give for “Lamin B receptor (from UniProt Q14739 1-615)” here?
Its binding is “binds”.

How did the binding turn out when “Leukocyte receptor cluster (LRC) member 8 (from UniProt Q96PV6 1-800)” was run?
Its binding is “binds”.

“Myomesin family, member 3 (from UniProt A2ABU4 1-1439)” was tested. Which binding did it give?
Its binding is “binds”.

For “Non-metastatic cells 2, protein (NM23B) (from UniProt Q01768 1-152)”, which binding is on record?
Its binding is “binds”.

“Zinc finger protein 100 (mouse (endogenous in Neuro2A))” was tested. Which binding did it give?
Its binding is “binds”.

Which binding does the source give for “Zinc finger protein 462 (from UniProt B1AWL2 1-2495)” here?
Its binding is “binds”.

B1: Archain 1 (protein, UniProt P48444 1-511)
chain: MVLLAAAVCTKAGKAIVSRQFVEMTRTRIEGLLAAFPKLMNTGKQHTFVETESVRYVYQPMEKLYMVLITTKNSNILEDLETLRLFSRVIPEYCRALEENEISEHCFDLIFAFDEIVALGYRENVNLAQIRTFTEMDSHEEKVFRAVRETQEREAKAEMRRKAKELQQARRDAERQGKKAPGFGGFGSSAVSGGSTAAMITETIIETDKPKVAPAPARPSGPSKALKLGAKGKEVDNFVDKLKSEGETIMSSSMGKRTSEATKMHAPPINMESVHMKIEEKITLTCGRDGGLQNMELHGMIMLRISDDKYGRIRLHVENEDKKGVQLQTHPNVDKKLFTAESLIGLKNPEKSFPVNSDVGVLKWRLQTTEESFIPLTINCWPSESGNGCDVNIEYELQEDNLELNDVVITIPLPSGVGAPVIGEIDGEYRHDSRRNTLEWCLPVIDAKNKSGSLEFSIAGQPNDFFPVQVSFVSKKNYCNIQVTKVTQVDGNSPVRFSTETTFLVDKYEIL
With B1 as the molecule, how does the binding read?
Its binding is “binds”.

B2: IKBKB interacting protein (protein, UniProt Q70UQ0 1-350)
chain: MSEVKSRKKSGPKGAPAAEPGKRSEGGKTPVARSSGGGGWADPRTCLSLLSLGTCLGLAWFVFQQSEKFAKVENQYQLLKLETNEFQQLQSKISLISEKWQKSEAIMEQLKSFQIIAHLKRLQEEINEVKTWSNRITEKQDILNNSLTTLSQDITKVDQSTTSMAKDVGLKITSVKTDIRRISGLVTDVISLTDSVQELENKIEKVEKNTVKNIGDLLSSSIDRTATLRKTASENSQRINSVKKTLTELKSDFDKHTDRFLSLEGDRAKVLKTVTFANDLKPKVYNLKKDFSRLEPLVNDLTLRIGRLVTDLLQREKEIAFLSEKISNLTIVQAEIKDIKDEIAHISDMN
How did the binding turn out when B2 was run?
The binding was “binds”.

These are yes or no findings as the source states them, for the method shown. In cells and extracts the contact can be indirect. These calls come from enrichment with a bait or labelling near it, and not all partners need be listed.
